For 56 compounds, cell number change and AC50 results are on record in PubChem BioAssay AID2685 (National Center for Advancing Translational Sciences (NCATS), 2010).

The assay can be described thus: qHTS Assay for Lipid Storage Modulators in Drosophila S3 Cells.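 On cell number change: cells counted by Cell Tracker Red CMTPX staining in the red channel.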 The settings on record: BODIPY lipid droplet fluorescence, 18-24 h; for cell number change: measured here: cell count max response, cells fed with added oleic acid. In outline:
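Drosophila S3 cells loaded with oleic acid (400 uM, as added) and compounds at several concentrations; lipid droplets imaged by 488-nm laser-scanning cytometry, 500–530 nm intensity and object ratio to cell channel. Percent activity normalized to 20 uM Triacsin C.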
Background: Quantitative high-throughput screening tests each substance at several concentrations.

The mark [1] stands for this setting: measured here: cell number channel AC50, cells fed with added oleic acid.
The mark [2] stands for this setting: measured here: lipid fluorescence (Fed channel) AC50, cells fed with added oleic acid.

The other results are listed elsewhere or left out. Further columns of the screen follow, without active or inactive calls. The list favours compounds with an active or inconclusive main result. The note in brackets gives the kind of curve behind each potency; many fits are weak.

As for `O=C(NNC(=S)NC(=O)c1ccccc1)c1ccc(O)cc1`, the cell number change was determined as 18%. The AC50 (commonly the midpoint of the concentration-response curve, whichever way the signal moves) under setting [1] was 5.8 µM [rising, partial curve, poor fit]. For the same compound, the AC50 under setting [2] was 5.8 µM [rising, partial curve, poor fit].

Consider `OCCNCc1c(OCc2ccc(Cl)cc2)ccc2ccccc12`, for which the cell number change is -61.4%. Under setting [1], the AC50 is 23.1 µM [falling, single point]. Moreover, the concentration at half-maximal activity (AC50) under setting [2] was 20.6 µM [falling, partial curve].

On to `Cc1ccc2nc(COC(=O)CNC(=O)c3ccccc3)cn2c1`, for which the cell number change was -75%. Also, under setting [1], the concentration at half-maximal activity (AC50) was 29.1 µM [falling, partial curve, poor fit]. Also, the AC50 under setting [2] is 25.9 µM [rising, single point].

As for `Cc1ccccc1CN1CCN(C(=O)c2cc(-c3ccncc3)nc3ccccc23)CC1`, the cell number change is -9.19%. Moreover, the concentration at half-maximal activity (AC50) under setting [2] is 2.31 µM [rising, partial curve, poor fit].

In the case of `CNC(=S)NNC(=O)c1cc(-c2cccnc2)nc2ccccc12`, the cell number change was 30.8%. For the same compound, under setting [1], the AC50 is 20.6 µM [rising, single point].

For `Cc1ccnn1CCSCC(=O)O`, the cell number change came out at 5.95%.

As to `COc1cc(COC(=O)c2cnc(C)cn2)c(OC)cc1Br`, the AC50 under setting [2] is 0.103 µM [falling, full curve].

As to `CC(C)NC(=O)c1ccccc1NC(=O)Cc1ccc(Br)cc1`, the cell number change worked out at 16.8%. For the same compound, the AC50 under setting [1] is 0.82 µM [rising, full curve].

For the compound `O=C(CCn1cnc2ccccc2c1=O)Nc1nc2c(s1)CCCC2`, the cell number change was -38.7%. Moreover, under setting [1], the AC50 was 29.1 µM [falling, single point]. For the same compound, under setting [2], the AC50 is 32.6 µM [falling, single point].

On to `O=S(=O)(c1ccc2nc(SCc3ccc(Cl)cc3)[nH]c2c1)N1CCOCC1`, for which the cell number change is -5.42%.

For the compound `COc1ccc(OC)c(C(c2nnnn2C2CCCC2)N2CCc3ccccc3C2)c1` (centres undefined), the cell number change is -7.76%. Also, under setting [2], the half-maximal activity concentration (AC50) was 5.17 µM [rising, single point].

`COc1ccc(S(=O)(=O)N2CCCCC2)cc1Br`: the cell number change is 7.42%.

In the case of `Cc1cccc2sc(NC(=O)CN(C)S(=O)(=O)c3cccs3)nc12`, the cell number change is -17.5%. Also, the AC50 under setting [2] was 29.1 µM [rising, single point].

`CC(OC(=O)CNC(=O)c1sc2ccccc2c1Cl)c1ccccc1` (centres undefined): the cell number change amounted to 36.5%. For the same compound, the concentration at half-maximal activity (AC50) under setting [1] is 25.9 µM [rising, partial curve]. Besides, the AC50 under setting [2] was 11.6 µM [falling, partial curve].

As to `O=C(NCC1CCCO1)c1ccc2c(=O)n(CCc3ccccc3)c(=O)[nH]c2c1` (centres undefined), the cell number change was 18.4%. Further, under setting [2], the concentration at half-maximal activity (AC50) is 9.2 µM [rising, partial curve, poor fit].

For `O=C(NNC1=NS(=O)(=O)c2ccccc21)c1ccc([N+](=O)[O-])cc1`, the cell number change stood at 5.42%. In addition, under setting [2], the AC50 was 0.116 µM [rising, single point].

For the compound `CCc1ccc(C(C)NC(=S)NCc2ccc(F)cc2)cc1` (centres undefined), the cell number change was found to be 47%. Moreover, under setting [2], the half-maximal activity concentration (AC50) was 0.184 µM [rising, full curve, poor fit].

Consider `CCCCSc1nc(N)c(NC(=O)c2ccco2)c(=O)[nH]1`, for which the cell number change was -70.6%. Besides, under setting [1], the AC50 is 32.6 µM [falling, single point].

With `CCOC(=O)c1ccc(N2C(=O)CC(SCC(=O)Nc3ccc(S(N)(=O)=O)cc3)C2=O)cc1` (centres undefined), the cell number change is -18.5%. Further, the half-maximal activity concentration (AC50) under setting [1] is 0.146 µM [falling, full curve, poor fit]. Besides, under setting [2], the AC50 was 3.66 µM [falling, single point].

For the compound `CSCc1c(C(=O)NCCc2ccccn2)oc2ccccc12`, the cell number change was found to be 2.38%. Under setting [2], the AC50 was 0.82 µM [rising, full curve, poor fit].

With `COC(=O)c1ccsc1NC(=O)CS(=O)(=O)c1ccccc1`, under setting [1], the AC50 is 1.03 µM [rising, partial curve].

For `Cc1ccc(NC(=O)COC(=O)Cn2cnc3ccccc32)c([N+](=O)[O-])c1`, the cell number change turned out to be 57.8%. Further, the AC50 under setting [1] is 29.1 µM [rising, single point].

For `CCOC(=O)c1c(NC(=O)c2cc(-c3cccc(O)c3)on2)sc(C(C)=O)c1C`, under setting [2], the AC50 is 0.206 µM [falling, full curve, poor fit].

Regarding `O=C(NCCCn1cccn1)C1CCC(=O)N(Cc2cccc(C(F)(F)F)c2)C1` (centres undefined), the cell number change was found to be 7.03%.

Consider `COc1ccccc1NC(=O)c1ccc2nc(C)c(C)nc2c1`, for which the cell number change was -19.1%. In addition, under setting [2], the concentration at half-maximal activity (AC50) was 0.651 µM [falling, full curve, poor fit].

In the case of `Cc1ccc(Cn2c(SCC(=O)NCc3ccco3)nc3ccsc3c2=O)cc1`, the cell number change was -48.6%. Further, under setting [1], the concentration at half-maximal activity (AC50) is 23.1 µM [falling, single point]. Also, the AC50 under setting [2] is 6.51 µM [rising, partial curve, poor fit].

With `CC(=O)c1c(N2CCN(Cc3ccccc3)CC2)nc(=S)n(Cc2ccccc2)c1C`, the cell number change was -56.8%. For the same compound, under setting [1], the half-maximal activity concentration (AC50) was 18.4 µM [falling, single point]. Moreover, under setting [2], the AC50 was 29.1 µM [falling, single point].

Turning to `CCCCn1c(SCC(=O)NCc2ccc3c(c2)OCO3)nnc1C(CC)N(C)C` (centres undefined), the cell number change worked out at 8.5%.

As to `Cc1nn2c(N3CCN(C4CCCC4)CC3)cc(C(C)(C)C)nc2c1-c1ccccc1`, the cell number change is 3.9%.

Regarding `O=C1OC(C(=O)Nc2ccccc2)Cc2ccccc21` (centres undefined), the cell number change is -16.6%. Moreover, the half-maximal activity concentration (AC50) under setting [1] was 6.51 µM [falling, single point]. The AC50 under setting [2] is 6.51 µM [falling, single point].

Regarding `CN(CC(=O)Nc1ccccc1Cl)C(=O)c1ccccc1SCC(=O)N1CCCC1`, the cell number change was -40%. Moreover, the AC50 under setting [1] is 32.6 µM [falling, single point]. Further, under setting [2], the AC50 was 0.164 µM [falling, full curve, poor fit].

`COc1cc(C(=O)NCc2nnc(SCC(=O)N3CCCCCC3)o2)cc(OC)c1OC`: the cell number change is 32.9%. Under setting [1], the concentration at half-maximal activity (AC50) is 29.1 µM [rising, single point].

Turning to `COc1ccc([N+](=O)[O-])cc1NC(=O)c1ccco1`, the cell number change is 13.7%. Also, the concentration at half-maximal activity (AC50) under setting [1] was 1.64 µM [rising, full curve, poor fit].

`CN(Cc1cccc(Cl)c1)C(=O)C1CCN(C(=O)Nc2ccccc2)CC1`: the AC50 is 6.51 µM [falling, single point] under setting [1] and 8.2 µM [falling, partial curve, poor fit] under setting [2].

Take `O=S(=O)(/N=C(/c1ccccc1)N1CCOCC1)c1ccc(Br)cc1`: the cell number change amounted to 6.74%. In addition, the AC50 under setting [2] is 6.51 µM [falling, single point].

`CC(C)(C)NC(=O)NC(=O)COC(=O)Cc1coc2ccc3ccccc3c12`: the cell number change is -14.1%. Besides, the half-maximal activity concentration (AC50) under setting [2] was 32.6 µM [falling, single point].

As to `CC12COC3(P(=O)(c4ccccc4)c4ccccc4)CC1CCC23CP(=O)(c1ccccc1)c1ccccc1` (centres undefined), the cell number change was found to be 12.6%. The half-maximal activity concentration (AC50) under setting [2] is 29.1 µM [falling, single point].

Take `CC(=O)c1cccc(NC(=O)C(OC(=O)c2cccs2)c2ccccc2)c1` (centres undefined): the cell number change was -13%. Further, the AC50 under setting [2] was 0.13 µM [falling, full curve, poor fit].

As for `Cc1cc2nc(/C=C/c3cccnc3)[nH]c2cc1C`, the cell number change came out at 8.07%. Moreover, the half-maximal activity concentration (AC50) under setting [2] was 29.1 µM [rising, single point].

Regarding `O=C(c1cc(COc2ccc3ncccc3c2)on1)N1CCCCCC1`, the cell number change was -42.5%. Moreover, the half-maximal activity concentration (AC50) under setting [1] is 23.1 µM [falling, single point]. Also, the AC50 under setting [2] is 10.3 µM [falling, partial curve].

Take `O=C(c1ccc2ccccc2n1)N1CCN(c2ccccn2)CC1`: the cell number change stood at 21.7%.

As for `O=S(=O)(NCc1ccccc1)c1ccc(S(=O)(=O)N(Cc2ccccn2)C2CCCC2)cc1`, the cell number change was -25.3%. Also, the AC50 under setting [2] was 29.1 µM [falling, single point].

Regarding `CC(=O)c1cccc(NC(=O)/C(=C\c2cccnc2)NC(=O)c2ccc(C)cc2)c1`, the cell number change was determined as 1.74%. Moreover, the AC50 under setting [2] was 29.1 µM [rising, single point].

Consider `CCCC(=O)c1ccc(N2CCN(C(=O)OCC)CC2)c(F)c1`, for which the cell number change is -11.1%. Moreover, the half-maximal activity concentration (AC50) under setting [1] was 0.00461 µM [falling, full curve, poor fit].

For the compound `O=C(CNC(=O)c1cccc(Br)c1)N/N=C/c1cccnc1`, the cell number change turned out to be 12.8%.

Regarding `COc1ccc(NC(=O)C(Br)C(C)C)cc1` (centres undefined), the cell number change was -37.6%. In addition, the concentration at half-maximal activity (AC50) under setting [1] was 25.9 µM [falling, single point].

Turning to `CCOc1ccc(C(F)(F)F)cc1NC(=O)COc1ccc(C(F)(F)F)cc1[N+](=O)[O-]`, the concentration at half-maximal activity (AC50) by setting is: under setting [1], 0.231 µM [rising, full curve]; under setting [2], 0.116 µM [rising, full curve, poor fit].

`O=C(CSCc1ccc(Cl)cc1)N/N=C/c1ccccc1`: the cell number change was -50.5%. For the same compound, under setting [1], the AC50 is 29.1 µM [falling, single point].

Turning to `c1cncc(CNc2c3c(nc4nnnn24)CCCC3)c1`, the cell number change was -3.35%. Besides, the concentration at half-maximal activity (AC50) under setting [2] is 2.59 µM [rising, single point].

For the compound `CC(C)CC(COCc1ccc(C(F)(F)F)cc1)N1CCN(C(=O)c2ccc(C(F)(F)F)cc2)CCC1=O` (centres undefined), the cell number change was determined as 32.3%. Also, the AC50 under setting [1] was 7.31 µM [rising, partial curve].

Turning to `Cc1c(NS(=O)(=O)c2ccc(C(=O)NCc3ccccc3)cc2)c(=O)n(-c2ccccc2)n1C`, the cell number change is 41.7%. The AC50 under setting [1] was 2.31 µM [rising, full curve]. The half-maximal activity concentration (AC50) under setting [2] was 6.51 µM [rising, single point].

Regarding `Cc1ccc(C)c(S(=O)(=O)N2CCCC2CNC(=O)C(=O)NCc2cccs2)c1` (centres undefined), the cell number change was 53.5%. For the same compound, the half-maximal activity concentration (AC50) under setting [1] was 10.3 µM [rising, partial curve, poor fit].

Consider `Cc1ccnc2nc(C(=O)OC(C)C(=O)NCc3ccccc3)nn12` (centres undefined), for which the cell number change amounted to 36.4%. Moreover, the AC50 under setting [1] is 0.259 µM [rising, partial curve]. Also, the AC50 under setting [2] is 2.06 µM [rising, partial curve, poor fit].

`Cc1cccc(N2CCN(C(=O)C3CCN(S(=O)(=O)c4cccc5cccnc45)CC3)CC2C)c1` (centres undefined): under setting [2], the concentration at half-maximal activity (AC50) was 0.13 µM [falling, full curve, poor fit].

As for `Cc1cc(N2C(=O)C(=O)/C(=C(/O)c3ccc(F)cc3)C2c2ccc(Cl)cc2)no1` (centres undefined), the cell number change amounted to 61.1%. Under setting [1], the AC50 is 6.51 µM [falling, single point]. Besides, the half-maximal activity concentration (AC50) under setting [2] was 6.51 µM [falling, single point].

Consider `O=C(N/N=C/C=C\c1ccccc1[N+](=O)[O-])c1ccco1`, for which the cell number change amounted to 39.8%. The AC50 under setting [1] was 1.84 µM [rising, full curve].
